# Test results: the supplement of paper PMC8728848
# The other results are listed elsewhere or left out.
# B1: Drgal1 (Danio rerio) (protein)
# chain: MAGVLIQNMSFKVGQTLTITGVPKPDSTNFAINIGHSPEDIALHMNPRFDAHGDQCTIVCNSFQSGSWCEEHRDDNFPFIQDKEFQIKITFTNEEFLVTLPDGSEIHFPNRQGSEKYKYMYFEGEVRIQGVEIK
# What was measured:
# Assay in all cases: glycan array binding signal (z-score within array); higher = stronger binding
# Details in all cases: glycan notation: IUPAC condensed, linker removed
# [1] = biological target: Gal3S(b1-3)[Fuc(a1-4)]GlcNAc
# Outline: (§1)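 Glycan array data were curated from 3228 arrays in the Consortium for Functional Glycomics database and kept only where the protein sequence was available. Glycan names were converted to IUPAC-condensed notation, and columns mapping to the same glycan were averaged. The binding signal is a within-array Z-score, averaged across arrays of the same protein sequence at different concentrations or buffers and across linkers. Negative Z-scores can be read as non-binding.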
# Gal3S(b1-4)Glc = biological target: Gal3S(b1-4)Glc
# Outline: as §1
# Gal3S(b1-4)Glc6S = biological target: Gal3S(b1-4)Glc6S
# Outline: as §1
# Gal3S(b1-4)GlcNAc = biological target: Gal3S(b1-4)GlcNAc
# Outline: as §1
# [2] = biological target: Gal3S(b1-4)[Fuc(a1-3)]Glc6S
# Outline: as §1
# [3] = biological target: Gal3S(b1-4)[Fuc(a1-3)]GlcNAc
# Outline: as §1
# [4] = biological target: Gal3S(b1-4)[Fuc(a1-3)]GlcNAc6S
# Outline: as §1
# Gal3S4S(b1-4)GlcNAc = biological target: Gal3S4S(b1-4)GlcNAc
# Outline: as §1
# Gal3S6S(b1-4)GlcNAc = biological target: Gal3S6S(b1-4)GlcNAc
# Outline: as §1
# Gal3S6S(b1-4)GlcNAc6S = biological target: Gal3S6S(b1-4)GlcNAc6S
# Outline: as §1
# Gal4S(b1-4)GlcNAc = biological target: Gal4S(b1-4)GlcNAc
# Outline: as §1
# Gal4S6S(b1-4)GlcNAc = biological target: Gal4S6S(b1-4)GlcNAc
# Outline: as §1
# Gal6P(b1-4)GlcNAc = biological target: Gal6P(b1-4)GlcNAc
# Outline: as §1
# Gal6S(b1-3)GlcNAc = biological target: Gal6S(b1-3)GlcNAc
# Outline: as §1
# Gal6S(b1-3)GlcNAc6S = biological target: Gal6S(b1-3)GlcNAc6S
# Outline: as §1
# Gal6S(b1-4)Glc = biological target: Gal6S(b1-4)Glc
# Outline: as §1
# Gal6S(b1-4)Glc6S = biological target: Gal6S(b1-4)Glc6S
# Outline: as §1
# Gal6S(b1-4)GlcNAc = biological target: Gal6S(b1-4)GlcNAc
# Outline: as §1
# Gal6S(b1-4)GlcNAc6S = biological target: Gal6S(b1-4)GlcNAc6S
# Outline: as §1
# GalNAc(a1-3)Gal = biological target: GalNAc(a1-3)Gal
# Outline: as §1
# GalNAc(a1-3)GalNAc = biological target: GalNAc(a1-3)GalNAc
# Outline: as §1
# [5] = biological target: GalNAc(a1-3)GalNAc(b1-3)Gal(a1-4)Gal(b1-4)Glc
# Outline: as §1
# [6] = biological target: GalNAc(a1-3)GalNAc(b1-3)Gal(a1-4)Gal(b1-4)GlcNAc
# Outline: as §1
# GalNAc(b1-3)Gal = biological target: GalNAc(b1-3)Gal
# Outline: as §1
# [7] = biological target: GalNAc(b1-3)Gal(a1-4)Gal(b1-4)GlcNAc
# Outline: as §1
# [8] = biological target: GalNAc(b1-3)Gal(a1-4)Gal(b1-4)GlcNAc(b1-3)Gal(b1-4)Glc
# Outline: as §1
# [9] = biological target: GalNAc(b1-3)Gal(a1-6)Gal(b1-4)Glc
# Outline: as §1
# GalNAc(b1-3)GalNAc = biological target: GalNAc(b1-3)GalNAc
# Outline: as §1
# GalNAc(b1-3)GlcNAc = biological target: GalNAc(b1-3)GlcNAc
# Outline: as §1
# GalNAc(b1-4)Gal(b1-4)Glc = biological target: GalNAc(b1-4)Gal(b1-4)Glc
# Outline: as §1
# GalNAc(b1-4)GlcNAc = biological target: GalNAc(b1-4)GlcNAc
# Outline: as §1
# [10] = biological target: GalNAc(b1-4)GlcNAc(b1-2)Man
# Outline: as §1
# [11] = biological target: GalNAc(b1-4)GlcNAc(b1-2)Man(a1-3)[GalNAc(b1-4)GlcNAc(b1-2)Man(a1-6)]Man(b1-4)GlcNAc(b1-4)GlcNAc
# Outline: as §1
# [12] = biological target: GalNAc(b1-4)GlcNAc(b1-3)GalNAc(b1-4)GlcNAc
# Outline: as §1
# GalNAc(b1-4)GlcNAc6S = biological target: GalNAc(b1-4)GlcNAc6S
# Outline: as §1
# GalNAc(b1-6)GalNAc = biological target: GalNAc(b1-6)GalNAc
# Outline: as §1
# GalNAc3S(b1-4)GlcNAc = biological target: GalNAc3S(b1-4)GlcNAc
# Outline: as §1
# GalNAc3S(b1-4)GlcNAc3S = biological target: GalNAc3S(b1-4)GlcNAc3S
# Outline: as §1
# [13] = biological target: GalNAc3S(b1-4)[Fuc(a1-3)]GlcNAc
# Outline: as §1
# GalNAc4S6S(b1-4)GlcNAc = biological target: GalNAc4S6S(b1-4)GlcNAc
# Outline: as §1
# GalNAc6S(b1-4)GlcNAc = biological target: GalNAc6S(b1-4)GlcNAc
# Outline: as §1
# Glc(a1-4)Glc = biological target: Glc(a1-4)Glc
# Outline: as §1
# [14] = biological target: Glc(a1-4)Glc(a1-4)Glc(a1-4)Glc
# Outline: as §1
# Glc(a1-6)Glc(a1-6)Glc = biological target: Glc(a1-6)Glc(a1-6)Glc
# Outline: as §1
# [15] = biological target: Glc(a1-6)Glc(a1-6)Glc(a1-6)Glc
# Outline: as §1
binder,measurement,setting,value
B1,glycan array binding signal (z-score),[1],-0.221
same,glycan array binding signal (z-score),Gal3S(b1-4)Glc,0.061
same,glycan array binding signal (z-score),Gal3S(b1-4)Glc6S,0.209
same,glycan array binding signal (z-score),Gal3S(b1-4)GlcNAc,-0.112
same,glycan array binding signal (z-score),[2],0.825
same,glycan array binding signal (z-score),[3],-0.33
same,glycan array binding signal (z-score),[4],0.275
same,glycan array binding signal (z-score),Gal3S4S(b1-4)GlcNAc,-0.506
same,glycan array binding signal (z-score),Gal3S6S(b1-4)GlcNAc,0.261
same,glycan array binding signal (z-score),Gal3S6S(b1-4)GlcNAc6S,1.16
same,glycan array binding signal (z-score),Gal4S(b1-4)GlcNAc,-0.088
same,glycan array binding signal (z-score),Gal4S6S(b1-4)GlcNAc,-0.349
same,glycan array binding signal (z-score),Gal6P(b1-4)GlcNAc,-0.758
same,glycan array binding signal (z-score),Gal6S(b1-3)GlcNAc,-0.889
same,glycan array binding signal (z-score),Gal6S(b1-3)GlcNAc6S,-0.095
same,glycan array binding signal (z-score),Gal6S(b1-4)Glc,0.281
same,glycan array binding signal (z-score),Gal6S(b1-4)Glc6S,-0.167
same,glycan array binding signal (z-score),Gal6S(b1-4)GlcNAc,-0.993
same,glycan array binding signal (z-score),Gal6S(b1-4)GlcNAc6S,-0.637
same,glycan array binding signal (z-score),GalNAc(a1-3)Gal,-0.226
same,glycan array binding signal (z-score),GalNAc(a1-3)GalNAc,0.206
same,glycan array binding signal (z-score),[5],-0.584
same,glycan array binding signal (z-score),[6],0.088
same,glycan array binding signal (z-score),GalNAc(b1-3)Gal,0.396
same,glycan array binding signal (z-score),[7],1.19
same,glycan array binding signal (z-score),[8],0.061
same,glycan array binding signal (z-score),[9],-0.416
same,glycan array binding signal (z-score),GalNAc(b1-3)GalNAc,0.158
same,glycan array binding signal (z-score),GalNAc(b1-3)GlcNAc,-0.433
same,glycan array binding signal (z-score),GalNAc(b1-4)Gal(b1-4)Glc,-0.603
same,glycan array binding signal (z-score),GalNAc(b1-4)GlcNAc,3.67
same,glycan array binding signal (z-score),[10],-0.681
same,glycan array binding signal (z-score),[11],0.413
same,glycan array binding signal (z-score),[12],-0.487
same,glycan array binding signal (z-score),GalNAc(b1-4)GlcNAc6S,0.025
same,glycan array binding signal (z-score),GalNAc(b1-6)GalNAc,-0.348
same,glycan array binding signal (z-score),GalNAc3S(b1-4)GlcNAc,-0.268
same,glycan array binding signal (z-score),GalNAc3S(b1-4)GlcNAc3S,-0.279
same,glycan array binding signal (z-score),[13],0.012
same,glycan array binding signal (z-score),GalNAc4S6S(b1-4)GlcNAc,-0.11
same,glycan array binding signal (z-score),GalNAc6S(b1-4)GlcNAc,-0.506
same,glycan array binding signal (z-score),Glc(a1-4)Glc,-0.118
same,glycan array binding signal (z-score),[14],0.069
same,glycan array binding signal (z-score),Glc(a1-6)Glc(a1-6)Glc,-0.376
same,glycan array binding signal (z-score),[15],0.377

# A portion of the results above, as a working copy:
binder,measurement,setting,value
B1,glycan array binding signal (z-score),[9],-0.416
same,glycan array binding signal (z-score),GalNAc(b1-3)GalNAc,0.158
